Source: article PMC6329795
Results are given in words; binding and its absence hold for the method and conditions named. Binding seen in cells or lysates may run through a third protein. Here binding means that the protein was enriched with, or labelled near, the bait; the list need not be complete. Where a sequence is shown, tags or fusion partners need not be part of it.

Columns and labels:
Experiment in all cases: proximity labelling; BioID in vivo: C-terminal BirA* fusions conditionally expressed in T. brucei, biotinylation induced for 24 h, labelled proteins purified and analysed by LC-MS/MS; estimated 10 nm labelling range
[1] = biological target: T1, MERS1 fusion with BirA* biotin ligase (Trypanosoma brucei) (UniProt B6SBM0)
T1 sequence: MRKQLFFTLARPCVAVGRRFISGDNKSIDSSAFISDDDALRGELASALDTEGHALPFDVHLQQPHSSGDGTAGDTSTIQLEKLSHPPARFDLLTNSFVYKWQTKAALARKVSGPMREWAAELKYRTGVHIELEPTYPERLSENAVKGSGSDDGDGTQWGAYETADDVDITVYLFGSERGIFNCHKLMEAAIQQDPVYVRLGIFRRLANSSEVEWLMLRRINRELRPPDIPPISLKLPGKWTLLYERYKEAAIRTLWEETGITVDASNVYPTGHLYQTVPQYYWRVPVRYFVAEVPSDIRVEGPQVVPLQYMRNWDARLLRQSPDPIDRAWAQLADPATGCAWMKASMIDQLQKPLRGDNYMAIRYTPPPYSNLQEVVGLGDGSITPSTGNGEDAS

[2] = biological target: T2, KPAP1 fusion with BirA* biotin ligase (Trypanosoma brucei) (UniProt B3FB38)
T2 sequence: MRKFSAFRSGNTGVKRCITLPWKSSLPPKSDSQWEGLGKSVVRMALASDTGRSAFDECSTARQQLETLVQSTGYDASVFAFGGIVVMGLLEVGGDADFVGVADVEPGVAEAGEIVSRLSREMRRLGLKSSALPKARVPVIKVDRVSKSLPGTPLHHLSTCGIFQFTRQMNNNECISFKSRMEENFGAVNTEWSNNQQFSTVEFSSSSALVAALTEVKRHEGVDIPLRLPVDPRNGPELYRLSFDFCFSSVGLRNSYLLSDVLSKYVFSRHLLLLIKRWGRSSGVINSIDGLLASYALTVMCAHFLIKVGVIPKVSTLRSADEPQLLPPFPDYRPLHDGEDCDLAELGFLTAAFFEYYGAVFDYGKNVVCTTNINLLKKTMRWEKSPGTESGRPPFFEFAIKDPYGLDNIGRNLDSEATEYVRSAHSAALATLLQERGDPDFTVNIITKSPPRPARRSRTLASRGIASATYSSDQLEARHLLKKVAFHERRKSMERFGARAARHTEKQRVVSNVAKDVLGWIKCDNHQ

[3] = biological target: T3, GRBC2 fusion with BirA* biotin ligase (Trypanosoma brucei) (UniProt B6SBL9)
T3 sequence: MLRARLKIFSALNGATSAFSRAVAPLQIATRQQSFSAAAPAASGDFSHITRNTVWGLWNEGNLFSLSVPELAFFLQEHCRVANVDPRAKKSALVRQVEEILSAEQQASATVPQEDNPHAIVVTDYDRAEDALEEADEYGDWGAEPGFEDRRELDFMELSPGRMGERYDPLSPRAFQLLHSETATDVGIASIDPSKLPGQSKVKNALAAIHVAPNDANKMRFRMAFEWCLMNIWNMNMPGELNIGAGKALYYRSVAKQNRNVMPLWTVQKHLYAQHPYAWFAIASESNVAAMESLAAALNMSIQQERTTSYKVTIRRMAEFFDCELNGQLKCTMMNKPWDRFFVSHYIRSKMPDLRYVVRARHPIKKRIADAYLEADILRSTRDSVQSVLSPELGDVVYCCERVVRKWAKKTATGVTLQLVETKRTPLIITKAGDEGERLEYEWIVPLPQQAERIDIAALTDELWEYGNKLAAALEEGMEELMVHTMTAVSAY

For “MRP2 (MRP1/2 RNA chaperone complex) (Trypanosoma brucei)”, the binding [1] was “binds”, the binding [2] was “binds” and the binding [3] was “binds”.
With “subunit P3 of the polyadenylation mediator module (PAMC)” the binding [2] was “binds”.
With “subunit P4 of the polyadenylation mediator module (PAMC)” the binding [2] was “binds”.
